Results are given in words; binding and its absence hold for the method and conditions named. In cells and extracts the contact can be indirect. Some binding calls cover weakened binding; strength is not graded here.
Biological target: DOM-A (DOMINO isoform A, DOM-RA), endogenously 3XFLAG-tagged (D. melanogaster (endogenous in S2 cells)) (UniProt Q9NDJ2)
Experiment: co-IP; FLAG-m2 beads on nuclear extract of S2 cells with endogenously 3XFLAG-tagged DOM-A or DOM-B (untagged cells as control), Protein-RIPA buffer, Benzonase, 3 hr at 4°C; western blot

The chains behind the UniProt entries cited, without tags or fusion partners.
UniProt Q9NDJ2: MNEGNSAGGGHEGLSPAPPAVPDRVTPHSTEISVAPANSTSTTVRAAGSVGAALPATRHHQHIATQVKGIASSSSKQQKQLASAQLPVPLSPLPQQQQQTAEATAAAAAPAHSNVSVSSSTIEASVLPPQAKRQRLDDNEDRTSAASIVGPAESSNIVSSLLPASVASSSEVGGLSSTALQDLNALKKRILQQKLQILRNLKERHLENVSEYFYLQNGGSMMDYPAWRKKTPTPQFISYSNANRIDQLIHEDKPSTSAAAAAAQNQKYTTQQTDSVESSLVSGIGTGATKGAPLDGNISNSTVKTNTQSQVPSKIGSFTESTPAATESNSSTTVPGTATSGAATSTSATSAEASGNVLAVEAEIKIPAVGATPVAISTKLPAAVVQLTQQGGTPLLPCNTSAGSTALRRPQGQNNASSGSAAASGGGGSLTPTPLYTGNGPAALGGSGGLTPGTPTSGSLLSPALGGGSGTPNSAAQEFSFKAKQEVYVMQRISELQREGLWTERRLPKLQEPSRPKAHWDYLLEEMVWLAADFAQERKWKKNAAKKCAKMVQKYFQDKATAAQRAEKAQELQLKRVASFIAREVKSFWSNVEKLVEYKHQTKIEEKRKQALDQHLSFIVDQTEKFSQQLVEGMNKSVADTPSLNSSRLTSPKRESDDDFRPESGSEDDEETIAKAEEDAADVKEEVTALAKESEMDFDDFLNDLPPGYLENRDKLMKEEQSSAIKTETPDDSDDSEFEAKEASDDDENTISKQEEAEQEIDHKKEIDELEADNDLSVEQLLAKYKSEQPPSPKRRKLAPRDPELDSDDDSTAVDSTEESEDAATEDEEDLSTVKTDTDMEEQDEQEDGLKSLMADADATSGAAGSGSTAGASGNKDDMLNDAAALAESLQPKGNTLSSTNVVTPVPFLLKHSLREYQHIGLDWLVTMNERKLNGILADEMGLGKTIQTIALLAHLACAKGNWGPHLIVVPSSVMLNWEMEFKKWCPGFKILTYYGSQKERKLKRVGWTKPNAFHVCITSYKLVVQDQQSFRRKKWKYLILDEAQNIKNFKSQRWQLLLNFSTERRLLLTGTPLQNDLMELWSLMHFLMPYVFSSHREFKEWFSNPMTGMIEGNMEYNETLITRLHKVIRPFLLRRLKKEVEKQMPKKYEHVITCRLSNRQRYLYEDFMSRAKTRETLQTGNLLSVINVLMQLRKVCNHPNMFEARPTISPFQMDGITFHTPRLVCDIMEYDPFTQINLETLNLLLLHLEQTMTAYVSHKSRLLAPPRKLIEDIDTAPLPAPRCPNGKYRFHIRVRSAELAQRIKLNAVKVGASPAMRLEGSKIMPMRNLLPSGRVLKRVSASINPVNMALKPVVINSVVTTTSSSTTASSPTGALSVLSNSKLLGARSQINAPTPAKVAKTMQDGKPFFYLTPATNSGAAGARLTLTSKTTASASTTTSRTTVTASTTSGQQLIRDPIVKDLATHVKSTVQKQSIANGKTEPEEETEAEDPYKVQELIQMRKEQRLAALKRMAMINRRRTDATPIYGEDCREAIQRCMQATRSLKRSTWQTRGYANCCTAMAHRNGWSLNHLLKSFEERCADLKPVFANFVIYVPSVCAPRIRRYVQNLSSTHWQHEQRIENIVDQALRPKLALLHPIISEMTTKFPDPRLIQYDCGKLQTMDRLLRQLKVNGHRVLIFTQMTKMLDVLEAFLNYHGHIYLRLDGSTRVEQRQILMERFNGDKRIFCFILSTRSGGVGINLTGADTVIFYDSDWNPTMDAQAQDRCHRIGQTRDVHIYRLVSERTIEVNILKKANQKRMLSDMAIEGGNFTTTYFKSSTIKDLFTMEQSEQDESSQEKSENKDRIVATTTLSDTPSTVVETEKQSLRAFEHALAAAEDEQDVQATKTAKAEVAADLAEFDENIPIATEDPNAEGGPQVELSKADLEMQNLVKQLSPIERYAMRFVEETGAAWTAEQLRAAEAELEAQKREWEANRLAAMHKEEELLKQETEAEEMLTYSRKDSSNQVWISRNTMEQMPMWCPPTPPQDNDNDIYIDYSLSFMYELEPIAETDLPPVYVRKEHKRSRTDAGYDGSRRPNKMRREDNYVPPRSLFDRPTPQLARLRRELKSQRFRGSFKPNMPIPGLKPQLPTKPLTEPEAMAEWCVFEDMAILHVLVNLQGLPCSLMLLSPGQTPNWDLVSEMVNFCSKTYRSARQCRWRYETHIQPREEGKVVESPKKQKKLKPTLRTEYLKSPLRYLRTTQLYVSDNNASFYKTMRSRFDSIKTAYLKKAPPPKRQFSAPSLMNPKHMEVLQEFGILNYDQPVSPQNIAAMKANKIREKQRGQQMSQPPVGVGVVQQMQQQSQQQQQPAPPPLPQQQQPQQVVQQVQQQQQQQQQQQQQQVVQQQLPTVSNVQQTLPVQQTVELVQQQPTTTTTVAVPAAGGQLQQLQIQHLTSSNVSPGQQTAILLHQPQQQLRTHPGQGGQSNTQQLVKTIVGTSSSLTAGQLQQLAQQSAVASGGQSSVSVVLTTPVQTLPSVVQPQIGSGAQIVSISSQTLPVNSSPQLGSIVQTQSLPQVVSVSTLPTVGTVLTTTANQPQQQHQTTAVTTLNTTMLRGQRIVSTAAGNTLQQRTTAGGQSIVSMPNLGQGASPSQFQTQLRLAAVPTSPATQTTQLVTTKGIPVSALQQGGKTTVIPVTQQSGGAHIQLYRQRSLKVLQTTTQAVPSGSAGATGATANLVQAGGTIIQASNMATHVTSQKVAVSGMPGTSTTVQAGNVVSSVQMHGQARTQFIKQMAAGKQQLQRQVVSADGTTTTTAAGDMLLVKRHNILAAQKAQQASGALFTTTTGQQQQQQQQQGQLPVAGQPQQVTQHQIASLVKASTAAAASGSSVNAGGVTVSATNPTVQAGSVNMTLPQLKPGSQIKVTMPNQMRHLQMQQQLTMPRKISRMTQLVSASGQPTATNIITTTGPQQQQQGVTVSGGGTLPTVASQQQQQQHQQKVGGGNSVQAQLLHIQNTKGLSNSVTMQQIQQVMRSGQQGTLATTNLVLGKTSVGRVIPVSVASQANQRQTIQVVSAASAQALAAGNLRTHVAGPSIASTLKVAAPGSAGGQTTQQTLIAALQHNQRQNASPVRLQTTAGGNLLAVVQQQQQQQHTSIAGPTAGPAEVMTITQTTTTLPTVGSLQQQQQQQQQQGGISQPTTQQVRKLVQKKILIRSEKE
UniProt Q960X4: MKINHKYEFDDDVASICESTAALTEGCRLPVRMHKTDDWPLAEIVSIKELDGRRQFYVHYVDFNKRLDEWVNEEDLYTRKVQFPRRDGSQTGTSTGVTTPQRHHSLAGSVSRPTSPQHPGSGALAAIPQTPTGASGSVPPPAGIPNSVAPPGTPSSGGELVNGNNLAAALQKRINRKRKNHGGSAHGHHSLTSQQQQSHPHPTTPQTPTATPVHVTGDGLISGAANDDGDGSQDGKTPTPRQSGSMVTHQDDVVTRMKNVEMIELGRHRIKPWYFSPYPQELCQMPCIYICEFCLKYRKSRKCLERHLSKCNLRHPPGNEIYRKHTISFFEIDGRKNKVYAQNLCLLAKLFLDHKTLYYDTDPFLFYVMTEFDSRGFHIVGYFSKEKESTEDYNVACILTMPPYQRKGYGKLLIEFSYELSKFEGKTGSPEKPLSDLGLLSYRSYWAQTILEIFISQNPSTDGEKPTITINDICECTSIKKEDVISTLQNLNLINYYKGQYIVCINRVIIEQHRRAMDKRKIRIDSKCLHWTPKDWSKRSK

binding: binds
Substance: TIP60 (from UniProt Q960X4 1-541) (enzyme)

From paper PMC7239659
